Assay [1] has as its system IL-2 secretion by human effector memory T cells (TEM). As to the kind of experiment: Effector memory T cells IL-2 release assay. Conditions: read-out: CD4TC IL2 IC50; human CD4+ effector memory T cells, CD3/CD28 bead stimulation, 24 h. The procedure:
Effector Memory T Cells IL-2 Release Assay
Test compound-mediated inhibition of NFκB signalling in T cells was assessed by quantification of the IL-2 secretion by human effector memory T cells (TEM) upon treatment and stimulation. Human TEM cells were isolated from buffy coats of healthy donors obtained from the French blood bank. First, peripheral blood mononuclear cells (PBMC) were purified from buffy coats diluted 1:1 with DPBS (Gibco, cat #14190-094) by Pancoll (PAN BIOTECH, cat #P04-60500) density gradient centrifugation at 400×g for 20 minutes. TEM cells were further enriched by negative immuno-magnetic cell sorting using a human CD4+ Effector Memory T Cell Isolation Kit (Miltenyi, cat #130-094-125) according to the manufacturer's instructions. Aliquots of 3×10E6 purified TEM cells were kept frozen in Cryo-SFM medium (PromoCell, cat #C-29912) in gas phase nitrogen until used. Cell purity was verified by flow cytometry analysis of 200 000 PFA-fixed cells previously labelled with monoclonal antibodies anti-CD4-PerCP-Cy5.5 (BD Pharmigen, cat #332772), anti-CD8-V500 (BD Biosciences, cat #561617), anti-CD14-Pacific Blue (Biolegend, cat #325616), anti-CD45 RA-FITC (Biolegend, cat #304106) and anti-CCR7-APC (in CD4+ Effector Memory T Cell Isolation Kit, Miltenyi, cat #130-094-125).
TEM cells were resuspended in complete RPMI medium composed of: RPMI 1640 (Gibco, cat #31870-025), 10% heat inactivated fetal bovine serum (Sigma, cat #F7524), 2 mM GlutaMAX (Gibco, cat #35050-038), 1 mM sodium pyruvate 100× (Gibco, cat #11360-039), 1% MEM non-essential amino acids solution (Gibco, cat #11140-035) and 100 U/mL penicillin, 100 μg/mL streptomycin (Sigma-Aldrich, cat #11074440001). 5,000 cells per well were plated onto flat clear bottom 384 well plates (Corning, cat #3770). 5,000 Dynabeads Human T-Activator CD3/CD28 (Gibco, cat #11132D) were added to each well for cell stimulation. Finally, 10 doses of test compound, originally prepared in DMSO by serial semi-log step dilution, were also added to cells in triplicate wells. Final DMSO concentration in wells was 0.1% in a total volume of 100 μL complete medium. Plates were incubated for 24 h at 37° C. in 5% CO2 atmosphere. After incubation, cell suspensions were centrifuged at 400×g and culture supernatants were recovered and stored at −80° C. Cell viability was assessed by flow cytometry after staining the cells with Fixable Viability Dye eFluor 780 (Invitrogen, cat #65-0865-14). IL-2 levels were determined in cell supernatants using an HTRF human IL-2 detection kit (Cisbio, cat #62HIL02PEH). […] Viability data were analysed similarly to exclude cytotoxicity as a cause of IL-2 decrease (see Table 1).

Sequences of proteins named here, by UniProt entry; tags and fusion partners are left off. Residues count along the entry.
UniProt Q9UDY8, 340-824 limits assumed: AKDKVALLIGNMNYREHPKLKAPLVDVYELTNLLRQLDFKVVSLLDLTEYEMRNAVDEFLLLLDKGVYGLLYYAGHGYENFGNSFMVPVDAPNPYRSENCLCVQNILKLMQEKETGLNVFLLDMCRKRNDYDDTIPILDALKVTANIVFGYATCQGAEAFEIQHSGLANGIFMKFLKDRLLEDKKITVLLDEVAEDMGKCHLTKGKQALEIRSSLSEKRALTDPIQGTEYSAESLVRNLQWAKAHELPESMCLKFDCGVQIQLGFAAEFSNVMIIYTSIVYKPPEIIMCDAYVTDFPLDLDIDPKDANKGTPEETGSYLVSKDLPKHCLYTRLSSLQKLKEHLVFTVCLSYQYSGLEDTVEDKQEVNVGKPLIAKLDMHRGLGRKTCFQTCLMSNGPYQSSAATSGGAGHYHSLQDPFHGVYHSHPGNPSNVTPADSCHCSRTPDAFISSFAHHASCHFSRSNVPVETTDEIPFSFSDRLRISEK

The target in assay [2] is Recombinant human MALT-1 (amino acids 340-824) (Homo sapiens (Human), UniProt Q9UDY8). The assay can be described thus: MALT-1 inhibition assay (fluorogenic substrate Ac-LRSR-Rh110-DP). To be noted: read-out: MALT-1 IC50; recombinant human MALT-1, substrate Ac-LRSR-Rh110-DP.

The match of structure and compound is tentative.

By IC50 is commonly meant the concentration that inhibits the measured activity by half. In the case of `COC(C)c1c(Nc2ccc(C(N(C)C(=O)C3CCS(=O)(=O)CC3)C(F)(F)F)cc2)cnc2ccc(Cl)nc12` (single isomer, unassigned) [CPD0019497], the IC50 in assay [1] worked out at 23 nM.
The same measure, in the same setting: under `COC(C)c1c(Nc2ccc(C(N(C)C(=O)C3CCS(=O)(=O)CC3)C(F)(F)F)cc2)cnc2ccc(Cl)nc12` (single isomer, unassigned) [CPD0019498] stands 122 nM.
Regarding `CC(=O)N1CCC(C(=O)N(C)[C@@H](c2ccc(N3CC[C@H](C)c4c3cnc3cc(Cl)nn43)cc2)C(F)(F)F)CC1` (relative stereo) [CPD0074566, 1-Acetyl-N-[(1S)-1-[4-[(13rel-R)-4-chloro-13-methyl-2,3,7,10-tetrazatricyclo[7.4.0.0^2,6]trideca-1(9),3,5,7-tetraen-10-yl]phenyl]-2,2,2-trifluoro-ethyl]-N-methyl-piperidine-4-carboxamide], in assay [2], the half-inhibitory concentration (IC50) came out at 33 nM.
Regarding `CN(C(=O)C1CCS(=N)(=O)CC1)C(c1ccc(N2CCC3(CC3)c3c2cnc2cc(Cl)nn32)cc1)C(F)(F)F` (centres unmarked), in assay [1], the IC50 was determined as 54 nM.
Still for that read-out and setting: under `COc1ccc2ncc(Nc3ccc([C@H](N(C)C(=O)C4CCS(=O)(=O)CC4)C(F)(F)F)cn3)c([C@H](C)OC)c2n1` (single isomer, unassigned) stands 571 nM.

For the origin of these results see patent US20250051327A1, “MALT-1 MODULATORS” (EXSCIENTIA AI LIMITED, priority 2020, published 2025).
